This assay has as its target BSA (bovine) (UniProt P02769). The assay can be described thus: condition: 1 μM or 2 μM (methods) recombinant protein; co-sedimentation; in vitro; recombinant His GST protein (1 μM in the legends, 2 μM in the methods) with increasing concentrations of microtubules from pig brain tubulin (or BSA instead) in 1X BRB80, 1 mM DTT, 20 μM paclitaxel, 5 min at room temperature; 100,000g, 15 min, 30 °C through 40% glycerol; immunoblot of supernatant and pellet; apparent Kd, one site-specific binding fit; both purified.

The chains behind the UniProt entries cited, without tags or fusion partners. Residues count along the entry.
UniProt P02769, residues 25-607: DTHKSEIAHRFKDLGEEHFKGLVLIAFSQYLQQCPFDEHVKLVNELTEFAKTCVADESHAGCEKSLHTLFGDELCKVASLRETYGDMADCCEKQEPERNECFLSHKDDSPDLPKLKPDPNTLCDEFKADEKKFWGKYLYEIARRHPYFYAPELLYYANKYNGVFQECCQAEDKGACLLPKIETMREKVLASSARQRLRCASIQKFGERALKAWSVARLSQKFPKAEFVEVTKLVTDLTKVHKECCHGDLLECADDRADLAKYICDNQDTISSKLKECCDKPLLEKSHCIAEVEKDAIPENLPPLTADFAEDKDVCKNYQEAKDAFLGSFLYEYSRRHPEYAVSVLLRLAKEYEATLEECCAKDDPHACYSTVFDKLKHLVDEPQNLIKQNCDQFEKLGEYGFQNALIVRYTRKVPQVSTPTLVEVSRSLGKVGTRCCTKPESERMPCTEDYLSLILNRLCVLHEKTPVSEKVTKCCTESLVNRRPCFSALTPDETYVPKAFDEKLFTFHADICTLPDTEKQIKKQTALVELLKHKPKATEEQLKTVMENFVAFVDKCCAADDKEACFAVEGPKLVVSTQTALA

Results are given in words; binding and its absence hold for the method and conditions named. Sequences can lack the tags named with a protein.

B1: His GST BAR-PH (aa 1-388) of ARHGAP10, WT (domain or fragment, UniProt A1A4S6 1-388)
chain: MGLQPLEFSDCYLDSPWFRERIRAHEAELERTNKFIKELIKDGKNLIAATKSLSVAQRKFAHSLRDFKFEFIGDAVTDDERCIDASLREFSNFLKNLEEQREIMALSVTETLIKPLEKFRKEQLGAVKEEKKKFDKETEKNYSLIDKHLNLSAKKKDSHLQEADIQVEQNRQHFYELSLEYVCKLQEIQERKKFEFVEPMLSFFQGMFTFYHQGHELAKDFNHYKMELQINIQNTRNRFEGTRSEVEELMNKIRQNPKDHKRASQFTAEGYLYVQEKRPAPFGSSWVKHYCMYRKAAKKFNMIPFEHRSGGKLGDGEVFFLKECTKRHTDSIDRRFCFDIEAADRPGVSLTMQAFSEEERKQWLEALGGKEALSHSFNTAIIPRPEGN
On to B1, for which the binding result is listed as “no binding”.
